The list shows a part of the results.
Columns and labels:
Test in all cases: log2 fold change, soluble protein after heating vs DMSO (PISA); higher = thermal stabilisation; K562 cells, 10 uM, 30 min; active = over 0.2 and 3.5 SD of the protein, either way, in both replicates (recomputed)
[1] = compound: C[C@@H](Oc1cc(-c2cnn(C3CCNCC3)c2)cnc1N)c1c(Cl)ccc(F)c1Cl [crizotinib]
Method in brief: (§1)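 Thermal stability values are relative to control samples and come from duplicates. They are expressed as log2 fold changes. For measurement, K562 cells (2×10^6 cells/mL) received 10 μM compound for 30 min, and aliquots were heated for 3 min over 48°C-58°C, pooled, and extracted at 4°C in PBS with 0.5% NP-40. Soluble protein, the supernatant after 21,000xg for 90 min, was quantified by TMTpro 16plex LC-MS/MS with equalised channel sums.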

By UniProt entry, the sequences of proteins in these tests, tags left out. Where a name states a change or a piece, a line headed by the entry shows the natural chain unless it says otherwise.
UniProt Q9NYV6: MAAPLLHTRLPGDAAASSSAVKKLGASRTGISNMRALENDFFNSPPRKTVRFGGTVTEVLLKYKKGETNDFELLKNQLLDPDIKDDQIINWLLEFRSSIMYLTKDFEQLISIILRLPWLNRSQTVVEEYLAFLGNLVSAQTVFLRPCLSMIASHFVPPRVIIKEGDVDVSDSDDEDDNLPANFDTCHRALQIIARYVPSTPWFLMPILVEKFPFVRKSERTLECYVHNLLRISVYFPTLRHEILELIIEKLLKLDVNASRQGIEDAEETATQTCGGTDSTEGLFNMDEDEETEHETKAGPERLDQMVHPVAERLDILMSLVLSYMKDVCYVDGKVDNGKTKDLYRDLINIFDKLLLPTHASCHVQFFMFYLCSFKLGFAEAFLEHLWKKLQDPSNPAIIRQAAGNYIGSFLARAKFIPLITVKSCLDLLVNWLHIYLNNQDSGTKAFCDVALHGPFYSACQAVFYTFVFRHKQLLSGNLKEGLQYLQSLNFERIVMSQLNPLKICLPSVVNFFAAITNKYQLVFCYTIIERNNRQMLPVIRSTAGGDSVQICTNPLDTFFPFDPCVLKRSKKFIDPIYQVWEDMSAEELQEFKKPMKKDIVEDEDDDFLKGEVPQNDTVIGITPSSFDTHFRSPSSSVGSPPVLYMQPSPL
UniProt O95059: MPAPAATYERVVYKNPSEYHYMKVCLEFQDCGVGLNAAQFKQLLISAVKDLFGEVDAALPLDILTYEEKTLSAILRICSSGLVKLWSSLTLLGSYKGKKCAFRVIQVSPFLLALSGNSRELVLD
UniProt Q9GZN7, whole entry, looked up: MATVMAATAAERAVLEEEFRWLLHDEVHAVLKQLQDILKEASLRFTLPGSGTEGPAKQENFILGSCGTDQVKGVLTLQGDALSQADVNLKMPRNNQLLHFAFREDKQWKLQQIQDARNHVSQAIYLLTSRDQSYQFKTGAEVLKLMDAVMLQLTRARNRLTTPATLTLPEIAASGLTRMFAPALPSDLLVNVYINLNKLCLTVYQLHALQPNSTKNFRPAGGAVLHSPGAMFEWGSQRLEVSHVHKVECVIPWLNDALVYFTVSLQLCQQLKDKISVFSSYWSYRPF
UniProt P35244: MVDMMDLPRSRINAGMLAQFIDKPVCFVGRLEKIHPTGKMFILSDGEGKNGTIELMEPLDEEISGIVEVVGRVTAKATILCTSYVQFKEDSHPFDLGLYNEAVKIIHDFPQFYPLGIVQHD
UniProt Q9H7B2: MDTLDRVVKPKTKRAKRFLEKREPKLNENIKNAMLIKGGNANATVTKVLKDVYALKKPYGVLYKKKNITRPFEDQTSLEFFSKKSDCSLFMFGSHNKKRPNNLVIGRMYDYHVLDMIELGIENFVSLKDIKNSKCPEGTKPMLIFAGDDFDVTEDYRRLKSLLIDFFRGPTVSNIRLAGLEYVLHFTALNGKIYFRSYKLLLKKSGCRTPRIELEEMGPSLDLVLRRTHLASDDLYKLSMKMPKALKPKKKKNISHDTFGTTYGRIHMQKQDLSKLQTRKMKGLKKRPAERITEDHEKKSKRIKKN
UniProt P78317: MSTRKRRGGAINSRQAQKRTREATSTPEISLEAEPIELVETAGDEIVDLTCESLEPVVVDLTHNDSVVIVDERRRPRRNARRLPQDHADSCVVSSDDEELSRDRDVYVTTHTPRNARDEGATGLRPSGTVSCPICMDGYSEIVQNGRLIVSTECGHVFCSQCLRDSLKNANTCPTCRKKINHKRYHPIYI
UniProt Q96AT9: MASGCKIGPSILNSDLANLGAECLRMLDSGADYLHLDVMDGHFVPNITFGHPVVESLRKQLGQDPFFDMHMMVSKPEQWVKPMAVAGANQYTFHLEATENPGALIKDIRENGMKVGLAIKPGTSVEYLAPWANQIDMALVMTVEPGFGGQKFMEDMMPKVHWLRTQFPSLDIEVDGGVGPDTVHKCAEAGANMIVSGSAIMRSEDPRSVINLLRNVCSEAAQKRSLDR
UniProt Q8N122, whole entry, looked up: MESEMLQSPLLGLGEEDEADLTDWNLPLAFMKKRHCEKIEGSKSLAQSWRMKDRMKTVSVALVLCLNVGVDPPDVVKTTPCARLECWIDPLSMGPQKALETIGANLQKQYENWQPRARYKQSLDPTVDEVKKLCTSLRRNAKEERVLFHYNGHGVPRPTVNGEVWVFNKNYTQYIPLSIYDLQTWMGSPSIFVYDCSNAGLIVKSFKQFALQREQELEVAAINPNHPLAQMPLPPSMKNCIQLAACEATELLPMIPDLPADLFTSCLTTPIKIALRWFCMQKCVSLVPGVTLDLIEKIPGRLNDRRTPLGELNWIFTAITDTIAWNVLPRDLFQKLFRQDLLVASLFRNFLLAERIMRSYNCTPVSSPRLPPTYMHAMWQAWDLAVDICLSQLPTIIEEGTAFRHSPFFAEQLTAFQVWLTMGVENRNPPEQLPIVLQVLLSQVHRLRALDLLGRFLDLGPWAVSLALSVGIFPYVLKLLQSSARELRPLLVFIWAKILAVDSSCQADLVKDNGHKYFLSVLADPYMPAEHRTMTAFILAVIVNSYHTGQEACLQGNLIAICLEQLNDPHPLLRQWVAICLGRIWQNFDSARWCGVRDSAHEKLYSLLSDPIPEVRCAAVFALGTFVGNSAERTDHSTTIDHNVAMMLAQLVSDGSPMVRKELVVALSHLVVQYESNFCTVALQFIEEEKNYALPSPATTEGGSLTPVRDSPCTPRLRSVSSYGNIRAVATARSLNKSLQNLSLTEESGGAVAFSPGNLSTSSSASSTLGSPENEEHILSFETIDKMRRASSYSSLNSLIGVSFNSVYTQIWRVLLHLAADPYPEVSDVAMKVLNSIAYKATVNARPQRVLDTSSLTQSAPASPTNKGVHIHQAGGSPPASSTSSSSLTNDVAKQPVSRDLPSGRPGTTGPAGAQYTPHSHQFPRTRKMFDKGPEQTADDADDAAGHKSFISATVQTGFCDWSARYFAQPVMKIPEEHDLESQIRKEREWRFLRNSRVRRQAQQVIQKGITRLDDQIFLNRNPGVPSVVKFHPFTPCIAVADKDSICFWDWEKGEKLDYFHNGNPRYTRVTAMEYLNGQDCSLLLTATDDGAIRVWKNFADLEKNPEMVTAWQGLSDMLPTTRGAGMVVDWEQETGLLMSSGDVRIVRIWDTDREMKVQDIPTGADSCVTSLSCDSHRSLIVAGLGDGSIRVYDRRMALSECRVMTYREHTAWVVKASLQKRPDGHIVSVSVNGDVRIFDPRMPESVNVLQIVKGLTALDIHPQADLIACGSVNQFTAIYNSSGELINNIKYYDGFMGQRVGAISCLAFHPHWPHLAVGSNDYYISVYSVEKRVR
UniProt Q96EP0: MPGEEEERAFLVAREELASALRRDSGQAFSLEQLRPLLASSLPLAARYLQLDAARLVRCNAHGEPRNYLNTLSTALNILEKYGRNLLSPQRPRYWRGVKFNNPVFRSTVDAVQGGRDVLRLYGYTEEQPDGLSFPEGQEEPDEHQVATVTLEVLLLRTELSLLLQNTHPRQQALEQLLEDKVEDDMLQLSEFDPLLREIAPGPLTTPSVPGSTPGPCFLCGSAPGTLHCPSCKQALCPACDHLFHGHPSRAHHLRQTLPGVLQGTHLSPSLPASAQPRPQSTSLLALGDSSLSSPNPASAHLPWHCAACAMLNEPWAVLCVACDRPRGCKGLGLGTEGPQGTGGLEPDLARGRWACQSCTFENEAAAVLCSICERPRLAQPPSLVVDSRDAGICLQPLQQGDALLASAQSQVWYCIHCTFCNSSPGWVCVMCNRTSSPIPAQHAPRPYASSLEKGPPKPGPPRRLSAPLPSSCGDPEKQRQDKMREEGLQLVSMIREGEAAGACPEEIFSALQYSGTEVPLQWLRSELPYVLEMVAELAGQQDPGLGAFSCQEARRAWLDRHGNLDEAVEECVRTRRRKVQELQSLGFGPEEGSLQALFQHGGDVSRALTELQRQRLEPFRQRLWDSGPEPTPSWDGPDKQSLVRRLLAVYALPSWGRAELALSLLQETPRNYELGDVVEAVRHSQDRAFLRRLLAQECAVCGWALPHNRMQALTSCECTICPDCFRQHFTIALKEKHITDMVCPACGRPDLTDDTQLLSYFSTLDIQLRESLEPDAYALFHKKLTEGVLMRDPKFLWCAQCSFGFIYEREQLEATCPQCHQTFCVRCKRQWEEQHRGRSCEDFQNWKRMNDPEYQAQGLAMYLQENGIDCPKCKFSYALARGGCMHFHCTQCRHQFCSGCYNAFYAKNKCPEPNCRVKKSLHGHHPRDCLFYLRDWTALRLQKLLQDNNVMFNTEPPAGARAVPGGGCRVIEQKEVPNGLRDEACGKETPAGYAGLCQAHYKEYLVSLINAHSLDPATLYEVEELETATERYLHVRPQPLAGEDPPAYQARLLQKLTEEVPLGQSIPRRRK
UniProt P60602: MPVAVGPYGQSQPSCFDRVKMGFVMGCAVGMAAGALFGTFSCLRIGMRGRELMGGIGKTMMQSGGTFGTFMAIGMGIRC
UniProt Q969K3: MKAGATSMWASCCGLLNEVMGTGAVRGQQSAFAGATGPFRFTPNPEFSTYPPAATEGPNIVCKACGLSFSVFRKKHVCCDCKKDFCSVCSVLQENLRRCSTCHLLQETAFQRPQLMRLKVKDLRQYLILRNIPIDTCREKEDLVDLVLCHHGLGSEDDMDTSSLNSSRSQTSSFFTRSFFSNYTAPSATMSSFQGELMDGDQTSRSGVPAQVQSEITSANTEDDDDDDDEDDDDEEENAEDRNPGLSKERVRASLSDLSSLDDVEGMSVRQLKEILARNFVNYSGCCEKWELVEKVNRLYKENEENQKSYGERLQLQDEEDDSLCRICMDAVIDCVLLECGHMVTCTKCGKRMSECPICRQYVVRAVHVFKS
UniProt Q86UA6: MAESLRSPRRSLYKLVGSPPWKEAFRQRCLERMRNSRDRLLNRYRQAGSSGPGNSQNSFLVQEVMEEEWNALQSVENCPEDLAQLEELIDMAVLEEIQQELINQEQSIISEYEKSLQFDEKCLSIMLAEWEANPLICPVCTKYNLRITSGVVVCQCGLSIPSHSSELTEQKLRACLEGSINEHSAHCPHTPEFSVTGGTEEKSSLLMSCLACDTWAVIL
UniProt Q5VT52: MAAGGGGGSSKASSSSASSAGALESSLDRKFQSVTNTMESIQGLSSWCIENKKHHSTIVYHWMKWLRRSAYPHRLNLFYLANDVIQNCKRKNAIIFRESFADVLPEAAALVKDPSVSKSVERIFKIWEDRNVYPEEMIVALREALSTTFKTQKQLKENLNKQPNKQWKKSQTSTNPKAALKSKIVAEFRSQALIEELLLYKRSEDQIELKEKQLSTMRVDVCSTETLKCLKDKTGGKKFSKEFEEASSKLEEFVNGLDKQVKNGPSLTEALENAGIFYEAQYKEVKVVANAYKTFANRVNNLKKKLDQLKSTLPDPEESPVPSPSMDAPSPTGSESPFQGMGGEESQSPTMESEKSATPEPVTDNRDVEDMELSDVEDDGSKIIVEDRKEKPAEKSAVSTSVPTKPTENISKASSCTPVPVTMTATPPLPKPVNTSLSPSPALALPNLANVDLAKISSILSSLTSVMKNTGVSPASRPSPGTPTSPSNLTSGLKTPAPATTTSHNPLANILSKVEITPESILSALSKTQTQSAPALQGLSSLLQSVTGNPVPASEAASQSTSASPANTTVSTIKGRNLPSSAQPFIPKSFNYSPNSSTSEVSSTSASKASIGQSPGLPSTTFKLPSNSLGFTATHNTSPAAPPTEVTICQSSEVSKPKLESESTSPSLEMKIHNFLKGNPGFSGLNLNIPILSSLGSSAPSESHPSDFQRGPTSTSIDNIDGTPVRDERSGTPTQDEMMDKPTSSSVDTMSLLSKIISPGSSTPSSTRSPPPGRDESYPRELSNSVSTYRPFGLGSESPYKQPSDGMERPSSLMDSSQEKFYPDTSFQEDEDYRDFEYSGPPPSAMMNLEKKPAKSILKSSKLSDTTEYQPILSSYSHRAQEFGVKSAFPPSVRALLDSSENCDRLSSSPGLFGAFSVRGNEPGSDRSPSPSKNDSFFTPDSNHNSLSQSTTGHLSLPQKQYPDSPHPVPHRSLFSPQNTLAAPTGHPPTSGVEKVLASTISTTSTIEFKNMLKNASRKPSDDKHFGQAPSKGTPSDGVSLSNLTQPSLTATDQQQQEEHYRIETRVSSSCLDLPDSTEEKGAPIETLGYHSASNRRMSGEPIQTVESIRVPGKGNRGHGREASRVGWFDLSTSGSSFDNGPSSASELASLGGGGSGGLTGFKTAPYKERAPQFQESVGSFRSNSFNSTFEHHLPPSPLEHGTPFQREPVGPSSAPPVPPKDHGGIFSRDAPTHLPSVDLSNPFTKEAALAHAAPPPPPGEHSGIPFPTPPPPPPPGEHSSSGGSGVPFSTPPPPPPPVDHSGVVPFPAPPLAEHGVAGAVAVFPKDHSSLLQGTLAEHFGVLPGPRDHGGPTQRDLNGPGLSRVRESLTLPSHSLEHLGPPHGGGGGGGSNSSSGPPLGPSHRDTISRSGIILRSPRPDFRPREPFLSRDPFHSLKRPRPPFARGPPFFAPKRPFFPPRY

[2] = compound: C[C@@H]1COCCN1C2=NC(=NC(=C2)C3(CC3)S(=O)(=O)C)C4=C5C=CNC5=CC=C4
Method in brief: as §1

[3] = compound: Cc1cc(Nc2cc(CN3CCOCC3)c3nc(C)c(Cc4ccc(Cl)cc4F)n3n2)n[nH]1 [gandotinib]
Method in brief: as §1

[4] = compound: Cc1ccc(-n2nc(C(C)(C)C)cc2NC(=O)Nc2ccc(OCCN3CCOCC3)c3ccccc23)cc1 [doramapimod]
Method in brief: as §1

[5] = compound: CS(=O)(=O)c1ccc(-c2cnc(N)c(C(=O)Nc3ccccc3)n2)cc1
Method in brief: as §1

[6] = compound: C[C@H](C1=CC=C(C=C1)C(=O)NC2=C3C=CNC3=NC=C2)N
Method in brief: as §1

[7] = compound: Cc1cc(SCc2sc(-c3ccc(C(F)(F)F)cc3)nc2C)ccc1OCC(=O)O
Method in brief: as §1

[8] = compound: Cc1ccc(C(=O)N(CCCN)[C@@H](c2nc3cc(Cl)ccc3c(=O)n2Cc2ccccc2)C(C)C)cc1 [ispinesib]
Method in brief: as §1

[9] = compound: Cc1cc(Nc2cc(N3CCN(C)CC3)nc(Sc3ccc(NC(=O)C4CC4)cc3)n2)n[nH]1 [tozasertib]
Method in brief: as §1

[10] = compound: C[C@H](Nc1ncnc2nc[nH]c12)c1cc2cccc(Cl)c2c(=O)n1-c1ccccc1 [duvelisib]
Method in brief: as §1

Measured: log2 fold change

RRN3 (UniProt Q9NYV6)
inactive: [1] -0.658 | [2] 0.056 | [3] -0.136 | [4] -0.218

RPUSD3 (UniProt Q6P087)
inactive: [3] -0.132

RPP14 (UniProt O95059)
inactive: [5] -0.048 | [1] -0.046 | [2] 0.019 | [6] -0.076 | [3] -0.119 | [7] -0.054 | [4] 0.06 | [8] 0.03

RRP1 (UniProt P56182)
inactive: [1] 0.094 | [3] 0.108 | [4] 0.099 | [8] -0.154

ROGDI (UniProt Q9GZN7)
inactive: [6] 0.101 | [3] -0.113 | [8] -0.344

RPA3 (UniProt P35244)
inactive: [5] -0.044 | [1] 0.042 | [2] -0.162 | [6] -0.098 | [3] 0.11 | [7] 0.003 | [4] -0.054 | [8] 0.109

RPL10 (UniProt F8W7C6)
inactive: [5] -0.102 | [2] -0.182 | [6] 0.357 | [3] -0.008 | [9] -0.028

RPF2 (UniProt Q9H7B2)
inactive: [3] 0.151

RNF4 (UniProt P78317)
inactive: [5] 0.04 | [2] 0.089 | [9] 0.121

RPP30 (UniProt Q5VU11)
inactive: [1] 0.049 | [10] -0.032 | [3] 0.06 | [7] 0.106 | [4] 0.039 | [8] -0.224

RPS21 (UniProt P63220)
inactive: [5] -0.053 | [1] 0.141 | [2] -0.108 | [6] 0.044 | [3] 0.048 | [7] -0.004 | [4] -0.022 | [8] 0.015

RPRD1A (UniProt Q96P16)
inactive: [5] -0.144 | [2] 0.157 | [10] -0.181 | [3] -0.01 | [9] 0.014 | [7] 0.19 | [8] 0.102

RPE (UniProt Q96AT9)
inactive: [1] -0.02 | [2] 0.091 | [6] -0.034 | [10] 0.149 | [9] 0.068 | [7] -0.008 | [4] -0.038 | [8] 0.039

RPL7L1 (UniProt Q6DKI1)
inactive: [1] -0.256 | [2] -0.331 | [10] -0.098 | [3] 0.034 | [7] -0.098 | [4] -0.185 | [8] -0.316

RPS3 (UniProt E9PJN9)
inactive: [3] -0.017 | [7] 0.148 | [8] -0.224

ROCK1 (UniProt Q13464)
inactive: [5] 0.016 | [1] -0.017 | [2] 0.042 | [3] -0.025 | [7] 0.027 | [4] -0.025 | [8] -0.069

RPS3A (UniProt D6R9B6)
inactive: [5] -0.014 | [7] 0.069

RPTOR (UniProt Q8N122)
inactive: [5] 0.012 | [1] -0.188 | [2] -0.031 | [6] 0.033 | [3] -0.115 | [7] 0.01 | [4] -0.009 | [8] -0.114

RPLP0 (UniProt F8VWV4)
inactive: [5] 0.026 | [1] 0.138 | [2] -0.218 | [6] 0.296 | [9] -0.058 | [4] 0.149

RPGR (UniProt Q92834)
inactive: [2] 0.054 | [9] 0.233

RRAGC (UniProt Q9HB90)
inactive: [5] 0.016 | [1] -0.262 | [2] 0.008 | [6] -0.027 | [3] 0 | [7] -0.039 | [4] 0.019 | [8] -0.153

RNF31 (UniProt Q96EP0)
inactive: [5] 0.016 | [2] 0.079 | [3] 0.156 | [9] 0.008

RPUSD4 (UniProt Q96CM3)
inactive: [5] -0.041 | [2] -0.106 | [6] 0.33 | [3] 0.184 | [9] 0.012 | [8] -0.208

ROS1 (UniProt P08922)
inactive: [5] 0.14 | [1] -0.051 | [6] 0.224 | [3] -0.317 | [4] 0.222

ROMO1 (UniProt P60602)
inactive: [5] 0.023 | [2] 0.121 | [6] 0.064 | [3] -0.033 | [7] -0.059 | [8] -0.061

RPL38 (UniProt P63173)
active: [2] -0.258
inactive: [5] -0.039 | [1] -0.069 | [6] 0.077 | [3] 0.144 | [7] -0.008 | [4] 0.017 | [8] -0.093

Random excerpt: 3 entries already listed, in no set order.
ROS1 (UniProt P08922)
inactive: [5] 0.14 | [1] -0.051 | [6] 0.224 | [3] -0.317 | [4] 0.222

RPUSD4 (UniProt Q96CM3)
inactive: [5] -0.041 | [2] -0.106 | [6] 0.33 | [3] 0.184 | [9] 0.012 | [8] -0.208

RRAGC (UniProt Q9HB90)
inactive: [5] 0.016 | [1] -0.262 | [2] 0.008 | [6] -0.027 | [3] 0 | [7] -0.039 | [4] 0.019 | [8] -0.153

Remaining list, next part.

RPL37 (UniProt P61927)
inactive: [5] -0.11 | [1] 0.003 | [6] 0.424 | [10] -0.311 | [3] 0.138 | [9] 0.01 | [7] -0.175 | [4] 0.281 | [8] -0.25

RNF34 isoform 2 (UniProt Q969K3)
inactive: [1] 0.051 | [2] 0.019 | [6] -0.093 | [10] -0.107 | [3] -0.024 | [9] 0.111 | [7] -0.005 | [4] -0.035 | [8] -0.034

RPS15 (UniProt P62841)
active: [6] 0.45
inactive: [5] 0.032 | [1] 0 | [2] -0.174 | [3] 0.137 | [7] -0.045 | [4] 0.032 | [8] -0.003

RNF40 (UniProt O75150)
inactive: [5] -0.107 | [6] -0.084 | [10] 0.209 | [9] 0.415 | [7] 0.1 | [8] -0.142

RPP25L (UniProt Q8N5L8)
inactive: [5] -0.031 | [1] 0.059 | [2] -0.014 | [6] 0.145 | [3] 0.045 | [7] -0.019 | [4] -0.005 | [8] -0.027

RPL22L1 (UniProt Q6P5R6)
inactive: [5] 0.064 | [1] -0.023 | [2] 0.024 | [4] 0.005

RNF26 (UniProt Q9BY78)
inactive: [3] 0.008 | [8] -0.829

RPAIN isoform 8 (UniProt Q86UA6)
inactive: [5] -0.024 | [1] 0.144 | [2] 0.385 | [6] -0.039 | [7] 0.078 | [4] -0.04 | [8] -0.155

RNFT1 (UniProt Q5M7Z0)
inactive: [2] 0.05 | [3] 0.023 | [8] -0.01

RPRD2 (UniProt Q5VT52)
inactive: [1] -0.145 | [2] 0.118 | [9] 0.003 | [4] -0.166 | [8] -0.138

RPS7, A0A2R8Y623
inactive: [5] -0.106 | [1] -0.103 | [9] 0.195 | [4] -0.158 | [8] -0.045

RPS6KB2 (UniProt Q9UBS0)
inactive: [1] -0.434 | [2] -0.015 | [6] 0.187 | [9] -0.075 | [4] -0.257

Reference: the supplement of paper PMC10849652
